Data published in patent publication US10238677B2, “Treatment of filarial diseases” (AbbVie Inc., priority 2015, dated 2019).
At least one structure is not confirmed: it was looked up by name or label, or the drawing left a doubt.

System: Wolbachia in adult Brugia malayi
Experiment: Adult Brugia malayi mouse model, Wolbachia wsp qPCR
Assay type: in vivo, BALB/c CCR3−/− mice
Conditions: separate study in the adult Brugia malayi mouse model
Source text: In an adult Brugia malayi mouse model treatment groups (BALB/c CCR3−/−mice, 6-8 week old) received compounds by oral delivery for 7-28 days beginning at 6-10 weeks post-infection intraperitoneal with Brugia malayi third-stage larvae. Following treatment, at 12 weeks post-infection, adult worms and released microfilariae were recovered from the peritoneal cavity, counted and staged for sex. Genomic DNA was extracted from individual adult worms (10/group) and quantification of the Wolbachia surface protein (wBm-wsp) performed by quantitative PCR.
Treatment dose (mg/kg/day) shown in parentheses and duration stated in days (d). MIN (minocycline), bid (twice daily), qd (once daily). Data in Table 4 are expressed as a reduction in Wolbachia load in comparison to the vehicle control group.
Treatment dose (mg/kg/day) shown in parentheses and duration stated in days (d). MIN (minocycline), bid (twice daily), qd (once daily).

CN(C)c1ccc(O)c2c1C[C@H]1C[C@H]3[C@H](N(C)C)C(O)=C(C(N)=O)C(=O)[C@@]3(O)C(O)=C1C2=O [minocycline]
Anti-Wolbachia efficacy compared dose-for-dose: superior to doxycycline
